According to PubChem BioAssay AID1487 (National Center for Advancing Translational Sciences (NCATS), 2009):
Some of the results follow. Further columns of the screen follow, without active or inactive calls. Most of these compounds were active or inconclusive in the main read-out, so they are no random draw. The note in brackets gives the kind of curve behind each potency; many fits are weak.

Experiment: qHTS Assay for Modulators of Lamin A Splicing
Conditions: HeLa LMNA splicing GFP/RFP minigene ratio, 48 h
Summary of the method: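 S3 HeLa stable clones carrying a lamin A-EGFP splicing minigene plus DsRed2 were seeded at 600 cells/well in Opti-MEM with 2% FBS, pin-dosed and incubated 48 h at 37°C. Acumen cytometry (488 nm) gave the GFP/RFP total-intensity ratio.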

[1] = measured here: GFP splicing reporter channel
[2] = measured here: RFP viability control channel

Row | SMILES | AC50 [1] | AC50 [2]
1 | CCCC(=O)Nc1ncnc2c1ncn2[C@@H]1O[C@H]2COP(=O)(O)O[C@@H]2[C@@H]1OC(=O)CCC | 0.316 µM [falling, single point] | –
2 | COc1ccc2nc(SCCN(C)C)[nH]c2c1 | – | 3.98 µM [falling, partial curve, poor fit]
3 | CCOC(=O)Cc1c(C)c2c(O)cc(O)cc2oc1=O | – | 25.1 µM [rising, single point]
4 | CCN1CCN(S(=O)(=O)c2ccc(S(=O)(=O)N(CC)Cc3ccccc3)cc2)CC1 | – | 12.6 µM [rising, partial curve, poor fit]
5 | CCCc1cc(=O)n2[nH]c(NCc3ccc(Cl)cc3Cl)nc2n1 | – | 31.6 µM [falling, single point]
6 | O=C(Nc1ccc(N2CCN(C(=O)c3ccco3)CC2)c(Cl)c1)c1cccs1 | 20 µM [rising, partial curve, poor fit] | 17.8 µM [rising, single point]
7 | CC(C)(C)c1ccc(S(=O)(=O)Nc2ccc(Cc3ccncc3)cc2)cc1 | – | 3.16 µM [rising, full curve]
8 | CSC(=S)N/N=C/c1ccc(N(C)C)cc1 | – | 35.5 µM [falling, single point]
9 | COCCN1C(=O)C(=O)/C(=C(/O)c2ccc(C)cc2)C1c1ccccn1 (configuration not stated) | 0.01 µM [rising, full curve, poor fit] | –
10 | CCCCCn1c(CN2CCN(c3cccc(Cl)c3)CC2)nc2c1c(=O)n(C)c(=O)n2C | 11.2 µM [rising, partial curve, poor fit] | 10 µM [rising, partial curve]
11 | Cc1ccc(CSCCNC(=O)c2cccc([N+](=O)[O-])c2)cc1 | 12.6 µM [rising, single point] | 35.5 µM [rising, single point]
12 | O=C(CSc1nn(-c2ccc(F)cc2)c(=S)s1)NC(=O)NCc1ccco1 | 35.5 µM [rising, single point] | 35.5 µM [rising, single point]
13 | CNC(=O)COC(=O)c1ccccc1C(=O)c1ccc(Cl)c([N+](=O)[O-])c1 | – | 35.5 µM [falling, partial curve, poor fit]
14 | CCn1c(SCC(=O)Nc2ccc3c(c2)c2ccccc2n3CC)nnc1-c1cnccn1 | 12.6 µM [rising, single point] | 12.6 µM [rising, single point]
15 | Cc1ccc(C2(C)NC(=O)N(CC(=O)c3ccc(Cl)s3)C2=O)cc1 (configuration not stated) | 5.62 µM [rising, partial curve] | 8.91 µM [rising, partial curve, poor fit]
16 | O=C(Nc1cnn(Cc2ccc(Cl)cc2Cl)c1)c1noc2c1CCCC2 | 10 µM [rising, partial curve, poor fit] | 15.8 µM [rising, partial curve]
17 | Cc1c(Br)c([N+](=O)[O-])nn1CCCC(=O)Nc1sc2c(c1C#N)CCC2 | – | 5.62 µM [rising, partial curve, poor fit]
18 | CCn1ncc(Br)c1C(=O)Nc1sc2c(c1C(N)=O)CCC2 | 0.794 µM [rising, partial curve] | –
19 | CC1CN(C)C(c2ccccc2)C(C)C12NC(=O)NC2=O (configuration not stated) | 12.6 µM [rising, single point] | –

2 entries from above, reformatted:
COCCN1C(=O)C(=O)/C(=C(/O)c2ccc(C)cc2)C1c1ccccn1 (configuration not stated)
  AC50 [1]: 0.01 µM [rising, full curve, poor fit]
CCCCCn1c(CN2CCN(c3cccc(Cl)c3)CC2)nc2c1c(=O)n(C)c(=O)n2C
  AC50 [1]: 11.2 µM [rising, partial curve, poor fit]
  AC50 [2]: 10 µM [rising, partial curve]

Single records (already shown). Values in the order: AC50 [1] | AC50 [2]
O=C(Nc1cnn(Cc2ccc(Cl)cc2Cl)c1)c1noc2c1CCCC2 in the list: 10 µM [rising, partial curve, poor fit] | 15.8 µM [rising, partial curve]
CCOC(=O)Cc1c(C)c2c(O)cc(O)cc2oc1=O in the list: – | 25.1 µM [rising, single point]

The list continues.

Row | SMILES | AC50 [1] | AC50 [2]
20 | Cc1cccc(CN2CCN(CC(=O)NCCCN3CCN(c4ccc(F)cc4)CC3)C2=O)c1 | – | 12.6 µM [rising, partial curve]
21 | COc1ccc(-c2ccc(SCC(=O)c3cccs3)nn2)cc1 | – | 35.5 µM [rising, single point]
22 | Cc1c(Cc2ccccc2)c(=O)oc2c(CN(C)C)c(O)c(Cl)cc12 | – | 0.02 µM [falling, full curve, poor fit]
23 | Oc1ccc(N=Nc2n[nH]c(-c3ccc(Cl)cc3)n2)cc1 | 3.16 µM [rising, partial curve] | –
24 | CCCCCC(=O)NC(=S)NNC(=O)c1ccc([N+](=O)[O-])cc1 | – | 12.6 µM [rising, partial curve]
25 | Cc1sc2nc(C(C)C)nc(SCC(=O)N3c4ccccc4CC3C)c2c1C (configuration not stated) | – | 35.5 µM [rising, partial curve, poor fit]
26 | COc1cc(NC(=S)NCCC(c2ccccc2)c2ccccc2)c(OC)cc1Cl | – | 31.6 µM [rising, single point]
27 | CCNc1nc(SCCOc2ccc(Cl)cc2Cl)nc(N(C)C)n1 | 17.8 µM [falling, single point] | –
28 | O=C(Cc1ccc(F)cc1)c1ccc(O)cc1O | – | 11.2 µM [rising, partial curve]
29 | CCOC(=O)Cc1csc(NC(=O)c2csc(C)c2)n1 | – | 22.4 µM [rising, single point]
30 | Cc1cccc(NC(=O)CSc2nc3c([nH]c4ccccc43)c(=O)n2-c2cc(C)cc(C)c2)c1 | 20 µM [falling, partial curve, poor fit] | 14.1 µM [falling, partial curve, poor fit]
31 | Cc1ccc(/C=C/C(=O)c2ccccc(=O)c2O)cc1C | – | 28.2 µM [rising, single point]
32 | O=C1NC2(CCC3(CC2)OCCO3)NN1c1ccccc1 | 0.0562 µM [rising, full curve, poor fit] | –
33 | COc1ccccc1C(=O)Nc1cccc(OCc2cc(=O)n3ccccc3n2)c1 | – | 7.08 µM [falling, full curve, poor fit]
34 | Cc1cccc(C)c1NC(=O)CSc1nnc(Cn2nnc(-c3ccccc3)n2)n1-c1ccccc1 | – | 12.6 µM [rising, single point]
35 | COC(=O)c1ccc(NC(=O)c2cnn(-c3ccc(Cl)cc3)c2C2CCN(C(=O)OC(C)(C)C)CC2)cc1 | 35.5 µM [falling, partial curve, poor fit] | –
36 | C=CCNC(=O)c1ccc(-n2cccc2)cc1 | – | 0.141 µM [falling, full curve, poor fit]
37 | CCCCNC(=S)N(C)/N=C/c1ccc(OCC(=O)Nc2ccc(OC)cc2)c(OC)c1 | – | 35.5 µM [rising, single point]
38 | Cc1cc(C)c(NC(=O)c2cc(C)nc3c2c(C)nn3-c2cccc(F)c2)c(C)c1 | – | 3.16 µM [rising, full curve, poor fit]

Row | SMILES | AC50 [1] | AC50 [2]
39 | CC1CCc2c(sc(NC(=O)CN3CCN(C(=O)c4ccco4)CC3)c2C#N)C1 (configuration not stated) | 10 µM [rising, partial curve, poor fit] | 17.8 µM [rising, single point]
40 | COc1cccc(C(=O)N2N=C(c3ccccc3)CC2(O)C(F)(F)F)c1 (configuration not stated) | 12.6 µM [rising, partial curve, poor fit] | 35.5 µM [rising, single point]
41 | CC(C)(C)C1CCc2onc(C(=O)Nc3ccc(F)cc3F)c2C1 (configuration not stated) | 25.1 µM [rising, single point] | 28.2 µM [rising, single point]
42 | O=C(NCC1CCCO1)C(c1ccccn1)N(Cc1ccccc1Cl)C(=O)CN1C(=O)c2ccccc2S1(=O)=O (configuration not stated) | 0.00501 µM [rising, full curve, poor fit] | –
43 | CCn1c(Cn2nnc(-c3ccccc3)n2)nnc1SCC(=O)Nc1cccc(C)c1C | 25.1 µM [rising, single point] | 20 µM [rising, single point]
44 | Oc1ccc(Br)cc1-c1cc(-c2ccccc2)n[nH]1 | 15.8 µM [rising, single point] | 22.4 µM [rising, partial curve]
45 | CCCCOc1ccccc1C1NC(=O)NC(C)=C1C(=O)OCCOCC (configuration not stated) | 12.6 µM [rising, single point] | 11.2 µM [rising, single point]
46 | CCOC(=O)N1CCN(C(=O)c2oc3ccc(S(=O)(=O)N4CCOCC4)cc3c2C)CC1 | – | 15.8 µM [rising, single point]
47 | CC1(C)Cc2c(sc3nc(-c4ccccc4Cl)n(N)c(=O)c23)CO1 | – | 17.8 µM [rising, single point]
48 | CC(=O)Nc1ccccc1C(=O)C(=O)Nc1ccc(C(=O)N2CCOCC2)cc1 | 0.0708 µM [rising, full curve, poor fit] | 0.0794 µM [rising, full curve, poor fit]
49 | COc1cccc2sc(Nc3nnc(-c4ccc(F)cc4)o3)nc12 | – | 15.8 µM [falling, single point]
50 | CCn1nccc1C(=O)Nc1ccc(S(=O)(=O)NC23CC4CC(CC(C4)C2)C3)cc1 | – | 15.8 µM [rising, partial curve]
51 | O=C(c1ccc2c(c1)OCO2)[C@@H]1[C@@H]2C(=O)N(C3CCCCC3)C(=O)[C@@H]2C2c3ccccc3C=CN21 (some centres not stated) | – | 2.82 µM [rising, partial curve, poor fit]
52 | COc1ccccc1C(=O)Nc1nnc(SCc2cc(=O)c3ccccc3[nH]2)s1 | 0.0251 µM [rising, full curve, poor fit] | 0.0891 µM [rising, full curve, poor fit]
53 | CCS(=O)(=O)c1ccc(N)cc1 | 35.5 µM [rising, single point] | –
54 | O=C(Nc1ccc(Cl)cc1)C1CC(=O)n2c(nc3ccccc32)N1 (configuration not stated) | – | 10 µM [falling, partial curve]
55 | CCOc1ccc(C2C=C(c3ccccc3)Nc3nnnn32)cc1 (configuration not stated) | – | 22.4 µM [rising, single point]
56 | Cc1ccc(CC(=O)Nc2ncc([N+](=O)[O-])s2)cc1 | – | 35.5 µM [rising, single point]
